Results are given in words; binding and its absence hold for the method and conditions named. Binding seen in cells or lysates may run through a third protein. Some results given as binding are weak or reduced against the parent protein; the word gives no strength. Tags and fused reporters may be left off the sequences shown.
Experiments:
Test in all cases: co-IP; HEK293 cells co-transfected (KCNQ1:KCNE plasmid 1:1), lysed 36-48 h later in 25 mM Tris-HCl pH 7.4, 150 mM NaCl, 1% Nonidet P-40, 5 mM EDTA; IP with mouse anti-HA at 4°C overnight, dynabeads protein G; blot with anti-Myc and anti-HA; mouse normal IgG as negative control; apparent
HA-KCNE2, wild type = target: T1, HA-KCNE2, wild type (UniProt Q9Y6J6)
T1 sequence: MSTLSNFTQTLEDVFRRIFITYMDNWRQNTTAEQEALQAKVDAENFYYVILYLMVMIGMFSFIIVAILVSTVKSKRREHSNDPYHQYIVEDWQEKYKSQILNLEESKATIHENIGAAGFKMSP

[1] = target: T2, HA-KCNE2 truncation containing only the KSKR sequence in the C-terminus (UniProt Q9Y6J6)
T2 sequence: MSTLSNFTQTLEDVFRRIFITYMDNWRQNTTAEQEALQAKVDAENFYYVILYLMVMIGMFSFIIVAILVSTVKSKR

[2] = target: T3, HA-KCNE2 C-terminal (amino acid residues 73-123) deletion mutant (UniProt Q9Y6J6)
T3 sequence: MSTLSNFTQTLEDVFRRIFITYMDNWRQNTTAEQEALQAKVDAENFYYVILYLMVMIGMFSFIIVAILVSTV

Measured: binding

KCNQ1 with a Myc tag (from UniProt P51787 1-676)
binds: HA-KCNE2, wild type | [1] | [2]

Source: PMC6833972
